The values that follow come from PMC5484619.

By UniProt entry, the sequences of proteins in these tests, tags left out. Where a name states a change or a piece, a line headed by the entry shows the natural chain unless it says otherwise.
UniProt Q14258: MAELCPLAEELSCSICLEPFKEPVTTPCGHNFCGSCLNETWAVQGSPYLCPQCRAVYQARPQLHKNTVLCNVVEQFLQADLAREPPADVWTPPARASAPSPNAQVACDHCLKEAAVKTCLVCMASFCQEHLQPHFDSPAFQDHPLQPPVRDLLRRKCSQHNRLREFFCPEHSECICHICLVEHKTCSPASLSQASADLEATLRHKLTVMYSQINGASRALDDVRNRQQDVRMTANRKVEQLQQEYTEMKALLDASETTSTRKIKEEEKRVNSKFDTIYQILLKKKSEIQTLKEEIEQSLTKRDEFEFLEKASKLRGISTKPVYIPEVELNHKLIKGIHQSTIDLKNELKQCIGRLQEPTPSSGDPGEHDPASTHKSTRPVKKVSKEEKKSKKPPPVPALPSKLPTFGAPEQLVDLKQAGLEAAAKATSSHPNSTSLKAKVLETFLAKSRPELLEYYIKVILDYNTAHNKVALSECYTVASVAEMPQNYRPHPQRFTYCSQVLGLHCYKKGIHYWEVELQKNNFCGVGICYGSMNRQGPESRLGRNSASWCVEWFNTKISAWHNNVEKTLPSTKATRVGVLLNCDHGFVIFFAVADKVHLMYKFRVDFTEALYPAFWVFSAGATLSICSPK
UniProt Q7Z434: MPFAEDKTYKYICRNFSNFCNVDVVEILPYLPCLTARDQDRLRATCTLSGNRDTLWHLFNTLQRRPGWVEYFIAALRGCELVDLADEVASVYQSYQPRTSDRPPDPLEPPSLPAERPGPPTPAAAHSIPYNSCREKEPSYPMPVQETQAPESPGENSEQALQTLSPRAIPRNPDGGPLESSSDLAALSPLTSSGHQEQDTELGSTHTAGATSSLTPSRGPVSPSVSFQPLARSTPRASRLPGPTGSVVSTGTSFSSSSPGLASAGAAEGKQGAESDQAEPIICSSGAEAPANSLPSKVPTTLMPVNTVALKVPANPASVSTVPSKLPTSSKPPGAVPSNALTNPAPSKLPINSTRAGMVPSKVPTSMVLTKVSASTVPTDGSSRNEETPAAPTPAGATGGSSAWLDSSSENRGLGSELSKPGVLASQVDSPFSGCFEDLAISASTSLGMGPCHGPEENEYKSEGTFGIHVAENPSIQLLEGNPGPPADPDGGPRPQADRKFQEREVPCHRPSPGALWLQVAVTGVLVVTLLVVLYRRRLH
UniProt P17742: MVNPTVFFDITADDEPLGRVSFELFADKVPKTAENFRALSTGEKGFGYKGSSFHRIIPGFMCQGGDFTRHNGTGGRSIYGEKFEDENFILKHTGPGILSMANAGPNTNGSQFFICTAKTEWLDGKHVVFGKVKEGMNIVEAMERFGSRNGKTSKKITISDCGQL
UniProt Q61510: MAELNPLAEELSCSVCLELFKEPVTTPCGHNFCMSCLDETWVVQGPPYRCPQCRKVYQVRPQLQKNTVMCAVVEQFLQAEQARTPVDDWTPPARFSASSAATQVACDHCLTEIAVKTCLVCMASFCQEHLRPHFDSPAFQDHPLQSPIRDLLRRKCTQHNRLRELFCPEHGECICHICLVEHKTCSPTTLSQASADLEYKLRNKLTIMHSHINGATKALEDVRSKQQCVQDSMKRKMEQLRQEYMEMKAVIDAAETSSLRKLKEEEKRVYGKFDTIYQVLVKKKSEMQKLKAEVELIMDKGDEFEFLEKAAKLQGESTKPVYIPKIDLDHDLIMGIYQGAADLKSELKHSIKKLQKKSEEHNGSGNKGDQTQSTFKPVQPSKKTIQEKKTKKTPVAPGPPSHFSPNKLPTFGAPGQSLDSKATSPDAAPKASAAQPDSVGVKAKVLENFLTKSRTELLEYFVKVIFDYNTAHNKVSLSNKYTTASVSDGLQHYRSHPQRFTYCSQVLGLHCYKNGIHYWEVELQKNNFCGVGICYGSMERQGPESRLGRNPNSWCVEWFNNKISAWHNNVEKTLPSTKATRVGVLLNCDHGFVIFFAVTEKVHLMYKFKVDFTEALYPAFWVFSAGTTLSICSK

One assay concerns the target Flag-TRIM25 (UniProt Q14258). Kind of assay: co-IP; 293T/CypA+ or 293T/CypA- cells transfected for 24 hr with tagged constructs; lysis in 0.5% NP40, 150 mM NaCl, 20 mM HEPES pH 7.4, 10% glycerol, 1 mM EDTA; anti-Flag beads 4 hr at 4°C; five washes with 300 mM NaCl; immunoblot; some panels with or without co-expressed CypA or TRIM25. On the technique in general: A western blot detects proteins with antibodies after separation by electrophoresis.

A further assay deals with Flag-MAVS (UniProt Q7Z434). The assay is described as above.
The target in assay [1] is T1, endogenous RIG-I of mouse BMDMs (mouse (endogenous in BMDMs)) (UniProt Q6Q899).
T1 sequence: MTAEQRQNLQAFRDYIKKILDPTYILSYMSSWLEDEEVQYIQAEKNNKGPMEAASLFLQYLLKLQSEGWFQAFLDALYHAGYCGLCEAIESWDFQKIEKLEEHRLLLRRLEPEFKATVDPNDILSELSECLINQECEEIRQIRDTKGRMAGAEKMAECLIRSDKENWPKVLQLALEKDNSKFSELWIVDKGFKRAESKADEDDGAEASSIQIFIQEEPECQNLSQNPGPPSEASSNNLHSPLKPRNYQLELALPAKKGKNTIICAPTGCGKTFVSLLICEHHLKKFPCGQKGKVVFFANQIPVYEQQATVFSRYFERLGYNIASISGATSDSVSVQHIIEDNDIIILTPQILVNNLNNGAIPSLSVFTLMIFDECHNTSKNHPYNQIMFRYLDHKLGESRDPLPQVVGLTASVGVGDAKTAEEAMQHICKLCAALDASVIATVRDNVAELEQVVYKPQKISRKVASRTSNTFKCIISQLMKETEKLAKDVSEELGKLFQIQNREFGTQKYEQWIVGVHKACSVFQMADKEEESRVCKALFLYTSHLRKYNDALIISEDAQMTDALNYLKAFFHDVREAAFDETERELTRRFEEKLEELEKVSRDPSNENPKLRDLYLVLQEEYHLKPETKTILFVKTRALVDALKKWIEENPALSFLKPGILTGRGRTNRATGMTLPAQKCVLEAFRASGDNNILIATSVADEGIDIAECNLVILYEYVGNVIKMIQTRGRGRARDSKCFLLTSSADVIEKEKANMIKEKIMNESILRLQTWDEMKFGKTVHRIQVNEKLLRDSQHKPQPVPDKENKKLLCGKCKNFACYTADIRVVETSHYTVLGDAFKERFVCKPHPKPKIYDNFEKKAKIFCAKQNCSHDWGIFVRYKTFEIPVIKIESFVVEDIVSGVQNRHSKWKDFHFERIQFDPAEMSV
Kind of assay: co-IP; endogenous proteins; WT (and Ppia-/-) mouse BMDMs infected with SeV for 6 hr; immunoprecipitation with anti-CypA or anti-RIG-I antibodies or control mouse IgG, Protein A/G PLUS-Agarose beads; immunoblot.

Assay [2] deals with endogenous CypA of mouse BMDMs (mouse (endogenous in BMDMs)) (UniProt P17742). Described as above.

No constants are given. Whether binding was seen depends on the method and setting. In cells and extracts the contact can be indirect. Some results given as binding are weak or reduced against the parent protein; the word gives no strength.

Take “HA-tagged deletion construct of MAVS, amino acids 360-540 (from UniProt Q7Z434 360-540) (domain or fragment)”: the binding entry in the assay with Flag-TRIM25 is “binds”.

Take “Myc-TRIM25 (from UniProt Q14258 1-630) (enzyme)”: in the assay with Flag-MAVS, the binding result was “binds”.

As for “endogenous TRIM25 of mouse BMDMs (from UniProt Q61510 1-634) (enzyme)”, in assay [1], the binding entry is “binds”.

B1: endogenous MAVS of mouse BMDMs (protein, UniProt Q8VCF0 1-503)
chain: MTFAEDKTYKYIRDNHSKFCCVDVLEILPYLSCLTASDQDRLRASYRQIGNRDTLWGLFNNLQRRPGWVEVFIRALQICELPGLADQVTRVYQSYLPPGTSLRSLEPLQLPDFPAAVSGPSAFAPGHNIPDHGLRETPSCPKPVQDTQPPESPVENSEQLLQTNSGAVARMSGGSLIPSPNQQALSPQPSREHQEQEPELGGAHAANVASVPIATYGPVSPTVSFQPLPRTALRTNLLSGVTVSALSADTSLSSSSTGSAFAKGAGDQAKAATCFSTTLTNSVTTSSVPSPRLVPVKTMSSKLPLSSKSTAAMTSTVLTNTAPSKLPSNSVYAGTVPSRVPASVAKAPANTIPPERNSKQAKETPEGPATKVTTGGNQTGPNSSIRSLHSGPEMSKPGVLVSQLDEPFSACSVDLAISPSSSLVSEPNHGPEENEYSSFRIQVDESPSADLLGSPEPLATQQPQEEEEHCASSMPWAKWLGATSALLAVFLAVMLYRSRRLAQ
Consider B1, for which the binding result in assay [2] is “binds”.

B2: endogenous RIG-I of mouse BMDMs (protein, UniProt Q6Q899 1-926)
chain: T1 sequence
B2: the binding entry in assay [2] is on record as “binds”.
